Test results as given in patent publication US20190202925A1.
Where a chain is given by its changes, count along the chain named. Results are given in words; binding and its absence hold for the method and conditions named. Some results given as binding are weak or reduced against the parent protein; the word gives no strength.

By UniProt entry, the sequences of proteins in these tests, tags left out. Residues count along the entry.
UniProt P20333, residues 23-257: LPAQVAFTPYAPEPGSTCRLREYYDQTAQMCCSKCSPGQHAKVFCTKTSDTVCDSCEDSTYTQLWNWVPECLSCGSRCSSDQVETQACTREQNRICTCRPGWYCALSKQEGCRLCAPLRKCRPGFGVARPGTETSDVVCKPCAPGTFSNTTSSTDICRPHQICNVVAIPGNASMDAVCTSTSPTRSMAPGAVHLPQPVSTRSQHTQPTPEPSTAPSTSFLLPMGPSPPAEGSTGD

B1: chimeric SBT-001 (antibody, V domains shown)
VH: EVQLQQSGAELVKPGASVKISCKASGYTFTDYNMDWVKQSHGKSLEWIGDINPNYESTSYNQKFKGKATLTVDKSSSTAYMEVRSLTSEDTAVFYCARDKGWYFDVWGAGTTVTVSS
VL: ENVLTQSPAIMSASLGEKVTMSCRASSSVKNMYWYQQKSDASPKLWIYYTSNLAPGVPARFSGSGSGNSYSLTISSMEGEDAATYYCQQFTSSPYTFGGGTKLELK
B2: chimeric SBT-002 (antibody, V domains shown)
VH: QVTLKESGPGILQPSQTLSLTCSFSGFSLSTSGMGVGWIRQPSGKGLEWLAHIWWDDDKFYNPSLKSQLTISKDTSRNQVFLKLTSVVTADTATYYCARLTGTRYFDYWGQGTTLTVSS
VL: DVQMTQSPSSLSASLGGKVTITCKASQDINKFIAWYQHKPGKGPRLLIHYTSTLQPGIPSKFSGSGSGRDYSFSISNLEPEDIATYYCLQYGNLWTFGGGTKLEIT
B3: chimeric SBT-003 (antibody, V domains shown)
VH: QIQLVQSGPELKKPGETVKISCKASGYTFTDYSMHWVKQAPGKGLKWMGWINTETGEPTYADDFKGRFAFSSETSTSTAYLQINNLKNDDTTTYFCATYYGSSYVPDYWGQGTSLTVSS
VL: DIVMTQSHKFMSTSVGDRVSITCKASQNVGTAVAWYQHKPGQSPKLLIYWTSSRHTGVPDRFTGSGSGTEFTLTISNVQSEDLADYFCHQYSDYPYTFGGGTKLEIK
B4: chimeric SBT-004 (antibody, V domains shown)
VH: EVQLQQSGPEVGRPGSSVKISCKASGYTFTDYIMHWVKQSPGQGLEWIGWVDPEYGSTDYAEKFKKKATLTADTSSNTAYIQLSSLTSEDTATYFCARDDGSYSPFDYWGQGVMVTVSS
VL: DIQMTQSPPSLSASLGDKVTITCQASQNINKYIAWYQQKPGKAPRLLIRYTSTLESGTPSRFSGSGSGRDYSFSISNVESEDIASYYCLQYVNLLTFGAGTKLEIK
B5: hSBT-002a (antibody, V domains shown)
VH: QVTLKESGPALVKPTQTLTLTCTFSGFSLSTSGMGVGWIRQPPGKALEWLAHIWWDDDKFYNPSLKSRLTISKDTSKNQVVLTMTNMDPVDTATYYCARITGTRYFDYWGQGTTVTVSS
VL: DIQMTQSPSSLSASVGDRVTITCKASQDINKFIAWYQQKPGKAPKLLIYYTSTLQPGVPSRFSGSGSGTDFTFTISSLQPEDIATYYCLQYGNLWTFGGGTKVEIK
B6: hSBT-002b (antibody, V domains shown)
VH: B5 VH with R68Q
VL: B5 VL with I2V, Y49H, V58I
B7: hSBT-002c (antibody, V domains shown)
VH: B5 VH with I100L
VL: B5 VL with I2V, Y49H, V58I
B8: hSBT-002d (antibody, V domains shown)
VH: B5 VH with R68Q
VL: B5 VL with I2V, Y49H, V58I, T69R, F71Y
B9: hSBT-002e (antibody, V domains shown)
VH: B5 VH with I100L
VL: B5 VL with I2V, Y49H, V58I, T69R, F71Y
B10: SBT-001 (antibody, V domains shown)
VH: B1 VH
VL: B1 VL
B11: SBT-004 (antibody, V domains shown)
VH: B4 VH
VL: B4 VL

What follows are binders tested against monomeric cynomolgus TNFR2 extracellular domain (cynomolgus monkey) (assay: BLI (Octet Red 96), antibody captured on Fc biosensor, monomeric TNFR2 ECD in solution).

binding, binds:
B1
B2
B3
B4

Each binder was assayed against monomeric human TNFR2 extracellular domain (human) (UniProt P20333) (assay: BLI (Octet Red 96), CHO supernatant antibody on anti-human Fc biosensor, 100 nM monomeric human TNFR2 ECD).

binding, binds:
B5
B6
B7
B8
B9

Each binder was assayed against monomeric cynomolgus TNFR2 extracellular domain (cynomolgus monkey) (assay: BLI (Octet Red 96), antibody on anti-mouse Fc biosensor, monomeric TNFR2 ECD in solution).

binding, binds:
B10
B11

Each binder was assayed against monomeric human TNFR2 extracellular domain (human) (UniProt P20333) in the same assay as above.

binding, binds:
B11
